The results in this text go back to PubChem BioAssay AID250 (DTP/NCI, 2004).

The subject of test [1] is BDF1 mice, L1210 leukemia sc, survival T/C. The experiment in a line: NCI In Vivo Anticancer Drug Screen. Data for tumor model L1210 Leukemia (subcutaneous) in B6D2F1 (BDF1) mice. As to conditions: higher T/C = longer survival. The essentials:
(§1)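 Read-out: T/C ratio, i.e. survival or tumor size in treated mice over that in vehicle-treated controls, from mice bearing transplantable tumors.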

Test [2] deals with BDF1 mice, L1210 leukemia sc. The test is described as above. As to conditions: higher T/C = longer survival. The essentials:
as §1

Setting [3] is: T/C endpoint: median survival time, dose: 5.0 mg/kg/injection, schedule: Q01DX Z (sc), vehicle: saline.
Where [4] appears, read: T/C endpoint: median survival time, dose: 14.0 mg/kg/injection, schedule: Q01DX Z (sc), vehicle: saline.
The mark [5] stands for this setting: T/C endpoint: median survival time, dose: 23.0 mg/kg/injection, schedule: Q01DX Z (sc), vehicle: saline.
[6] abbreviates: T/C endpoint: median survival time, dose: 39.0 mg/kg/injection, schedule: Q01DX Z (sc), vehicle: saline.

The list shows only some results of the screen, not a fair sample: it is rich in T/C values a quarter to a half above the control, in often repeated tests (any T/C) and in doses without a T/C. Other doses and runs of a compound stand elsewhere. T/C: endpoint of the treated group in % of that of the vehicle group. Some entries give survivors of the animals treated and no T/C: the source files T/C as zero there, which appears to mark a toxic dose or a test without result, not a measured value. Some survivor counts are full or nearly so, which does not show that the dose was tolerated: survival well below the control is almost never listed, so the zero probably covers shortened survival too. For part of these data: Survivors were counted at the toxicity check, usually on the fifth day, unless a day is given; later deaths do not show. Schedule codes are those of the source, taken here to give the interval after Q, in days (D) or hours (H), and the number of doses after X. Some schedules carry Z or #; the key to these is not given. For part of these data: Where survival is the endpoint, the PubChem record calls one and a half times the control and up active, and a quarter to a half above the control has no call in these data; cut-offs in other NCI protocols can differ. Some entries were tested several times; the values are given in rising order. Some T/C values are followed by the survivors on the day toxicity was checked, most often the fifth; where none is given, no animal had died by that day.

In the case of `COc1ccc2c(Nc3ccc(NS(C)(=O)=O)cc3)c3ccccc3nc2c1`, the survivor count in test [1] (T/C endpoint: mean survival time, dose: 50.0 mg/kg/injection, schedule: Q01DX009 (sc), vehicle: saline) is recorded as 10 of 10. Moreover, the T/C in test [2] (T/C endpoint: mean survival time, dose: 12.5 mg/kg/injection, schedule: Q01DX009 (sc), vehicle: saline) is 125 % of control; in test [2] (T/C endpoint: mean survival time, dose: 25.0 mg/kg/injection, schedule: Q01DX009 (sc), vehicle: saline), 144 % of control.
`C=CCNC(=O)NCC=C`: the survivor count is given as 5 of 8 in test [1] (T/C endpoint: median survival time, dose: 400.0 mg/kg/injection, schedule: Q01DX001 (ip), vehicle: saline); 5 of 8 in test [1] (T/C endpoint: median survival time, dose: 400.0 mg/kg/injection, schedule: Q01DX001 (sc), vehicle: saline); 1 of 8 in test [1] (T/C endpoint: median survival time, dose: 400.0 mg/kg/injection, schedule: Q01DX009 (ip), vehicle: saline); 0 of 8 in test [1] (T/C endpoint: median survival time, dose: 400.0 mg/kg/injection, schedule: Q01DX009 (sc), vehicle: saline); 4 of 8 in test [1] (T/C endpoint: median survival time, dose: 400.0 mg/kg/injection, schedule: Q04DX003 (ip), vehicle: saline); 4 of 8 in test [1] (T/C endpoint: median survival time, dose: 400.0 mg/kg/injection, schedule: Q04DX003 (sc), vehicle: saline). Also, the survivor count is reported as 0 of 8 in test [1] (T/C endpoint: median survival time, dose: 800.0 mg/kg/injection, schedule: Q01DX001 (ip), vehicle: saline); 0 of 8 in test [1] (T/C endpoint: median survival time, dose: 800.0 mg/kg/injection, schedule: Q01DX001 (sc), vehicle: saline); 0 of 8 in test [1] (T/C endpoint: median survival time, dose: 800.0 mg/kg/injection, schedule: Q04DX003 (ip), vehicle: saline); 3 of 8 in test [1] (T/C endpoint: median survival time, dose: 800.0 mg/kg/injection, schedule: Q04DX003 (sc), vehicle: saline). Moreover, the T/C in test [2] (T/C endpoint: median survival time, dose: 12.5 mg/kg/injection, schedule: Q01DX009 (ip), vehicle: saline) is 127 % of control; in test [2] (T/C endpoint: median survival time, dose: 12.5 mg/kg/injection, schedule: Q01DX009 (sc), vehicle: saline), 127 % of control; in test [2] (T/C endpoint: median survival time, dose: 25.0 mg/kg/injection, schedule: Q01DX009 (ip), vehicle: saline), 133 % of control; in test [2] (T/C endpoint: median survival time, dose: 25.0 mg/kg/injection, schedule: Q01DX009 (sc), vehicle: saline), 127 % of control; in test [2] (T/C endpoint: median survival time, dose: 50.0 mg/kg/injection, schedule: Q01DX009 (ip), vehicle: saline), 133 % of control; in test [2] (T/C endpoint: median survival time, dose: 50.0 mg/kg/injection, schedule: Q01DX009 (sc), vehicle: saline) it was 138 % of control. Moreover, the T/C in test [2] (T/C endpoint: median survival time, dose: 100.0 mg/kg/injection, schedule: Q01DX009 (ip), vehicle: saline) was 144 % of control; in test [2] (T/C endpoint: median survival time, dose: 100.0 mg/kg/injection, schedule: Q01DX009 (sc), vehicle: saline), 144 % of control; in test [2] (T/C endpoint: median survival time, dose: 200.0 mg/kg/injection, schedule: Q01DX009 (sc), vehicle: saline), 144 % of control; in test [2] (T/C endpoint: median survival time, dose: 200.0 mg/kg/injection, schedule: Q04DX003 (sc), vehicle: saline), 127 % of control [7 of 8 alive].
On to `CCC(=O)NC1=C(N2CC2)C(=O)C(NC(=O)CC)=C(N2CC2)C1=O`, for which, in test [1] (T/C endpoint: median survival time, dose: 0.65 mg/kg/injection, schedule: Q01DX Z (sc), vehicle: methylcellulose (MC)), the survivor count is on record as 4 of 10. Besides, the T/C in test [2] (T/C endpoint: median survival time, dose: 3.0 mg/kg/injection, schedule: Q01DX Z (sc), vehicle: methylcellulose (MC)) is 125 % of control [8 of 10 alive]; in test [2] (T/C endpoint: median survival time, dose: 5.0 mg/kg/injection, schedule: Q01DX Z (sc), vehicle: methylcellulose (MC)) it was 130 % of control [8 of 10 alive]; in test [2] (T/C endpoint: median survival time, dose: 8.4 mg/kg/injection, schedule: Q01DX Z (sc), vehicle: methylcellulose (MC)) it was 130 % of control; in test [2] (T/C endpoint: median survival time, dose: 14.0 mg/kg/injection, schedule: Q01DX Z (sc), vehicle: methylcellulose (MC)), 130 % of control.
In the case of `CCCCN(CCCC)P(=O)(N1CC1)N1CC1`, the survivor count was 6 of 10 in test [1] (T/C endpoint: median survival time, dose: 1.08 mg/kg/injection, schedule: Q01DX Z (sc), vehicle: saline); 6 of 10 in test [1] (setting [3]); 6 of 10 in test [1] (T/C endpoint: median survival time, dose: 8.4 mg/kg/injection, schedule: Q01DX Z (sc), vehicle: saline); 6 of 10 in test [1] (setting [4]). Moreover, the T/C was 135 % of control [9 of 10 alive] in test [2] (setting [5]) and 140 % of control in test [2] (setting [6]).
For the compound `CN1c2c(nc(N)[nH]c2=O)NCC1CCNc1ccc(C(=O)NC(CCC(=O)O)C(=O)O)cc1` (stereo not given), the T/C in test [2] (T/C endpoint: median survival time, dose: 100.0 mg/kg/injection, schedule: Q01DX012 (ip), vehicle: other) is 133 % of control; in test [2] (T/C endpoint: median survival time, dose: 200.0 mg/kg/injection, schedule: Q01DX012 (ip), vehicle: other), 144 % of control; in test [2] (T/C endpoint: median survival time, dose: 400.0 mg/kg/injection, schedule: Q01DX012 (ip), vehicle: other), 144 % of control.
On to `O=C(Nc1ccc(C2=NCCCN2)cc1)c1ccc(C(=O)Nc2ccc(C3=NCCCN3)cc2)cc1`, for which the T/C in test [2] (T/C endpoint: median survival time, dose: 39.0 mg/kg/injection, schedule: Q01DX Z (sc), vehicle: methylcellulose (MC)) was 140 % of control.
For the compound `O=c1[nH]cc(F)c(=O)[nH]1`, the T/C in test [2] (T/C endpoint: median survival time, dose: 8.0 mg/kg/injection, schedule: Q01DX Z (sc), vehicle: saline) was 133 % of control; in test [2] (T/C endpoint: median survival time, dose: 14.0 mg/kg/injection, schedule: Q01DX009 (sc), vehicle: saline), 125 % of control; in test [2] (T/C endpoint: median survival time, dose: 14.0 mg/kg/injection, schedule: Q01DX013 (sc), vehicle: saline), 148 % of control; in test [2] (T/C endpoint: median survival time, dose: 23.0 mg/kg/injection, schedule: Q01DX009 (ip), vehicle: saline), 132 % of control; in test [2] (T/C endpoint: median survival time, dose: 32.0 mg/kg/injection, schedule: Q01DX Z (sc), vehicle: saline), 138 % of control; in test [2] (T/C endpoint: median survival time, dose: 38.9 mg/kg/injection, schedule: Q01DX Z (sc), vehicle: saline), 141 % of control [9 of 10 alive]. Moreover, the T/C is 145 % of control in test [2] (setting [6]); 129 % of control in test [2] (T/C endpoint: median survival time, dose: 39.0 mg/kg/injection, schedule: Q04DX003 (ip), vehicle: saline); 128 % of control in test [2] (T/C endpoint: median survival time, dose: 39.0 mg/kg/injection, schedule: Q04DX003 (sc), vehicle: saline); 136 % of control in test [2] (T/C endpoint: median survival time, dose: 65.0 mg/kg/injection, schedule: Q01DX Z (sc), vehicle: saline, evaluated on day 34); 135 and 140 % of control in test [2] (T/C endpoint: median survival time, dose: 65.0 mg/kg/injection, schedule: Q01DX Z (sc), vehicle: saline, run until all animals had died); 142 % of control in test [2] (T/C endpoint: median survival time, dose: 65.0 mg/kg/injection, schedule: Q04DX003 (ip), vehicle: saline). Moreover, the T/C is 130 and 135 % of control in test [2] (T/C endpoint: median survival time, dose: 108.0 mg/kg/injection, schedule: Q01DX Z (sc), vehicle: saline); 130 % of control in test [2] (T/C endpoint: median survival time, dose: 180.0 mg/kg/injection, schedule: Q01DX Z (sc), vehicle: saline).
For `Cc1cccc(C)c1NC(=O)N(CCCl)N=O`, the T/C in test [2] (T/C endpoint: median survival time, dose: 14.0 mg/kg/injection, schedule: Q01DX Z (sc), vehicle: carboxymethylcellulose (CMC)) is 125 % of control.
With `CCOC(=O)C(N)Cc1ccc(N(CCCl)CCCl)cc1` (stereo not given), the T/C in test [2] (setting [4]) was 130 and 138 % of control.
Turning to `CCCC(=O)NC1=C(N2CC2)C(=O)C(NC(=O)CCC)=C(N2CC2)C1=O`, the T/C in test [2] (setting [3]) is 144 % of control.
Take `CN=C(NC)c1ccc(NC(=O)Nc2ccc(NC(=O)Nc3ccc(C(=NC)NC)cc3)cc2)cc1`: the T/C in test [2] (setting [5]) is 140 % of control.
As to `CCCNc1ncnc2[nH]ncc12`, the T/C was 130 % of control in test [2] (T/C endpoint: median survival time, dose: 23.3 mg/kg/injection, schedule: Q01DX Z (sc), vehicle: methylcellulose (MC)) and 140 % of control in test [2] (T/C endpoint: median survival time, dose: 38.9 mg/kg/injection, schedule: Q01DX Z (sc), vehicle: methylcellulose (MC)).
In the case of `N[C@H](C(=O)O)[C@H]1ON=C(Cl)[C@@H]1O`, the T/C was 125 % of control in test [2] (T/C endpoint: median survival time, dose: 16.0 mg/kg/injection, schedule: Q01DX009 (sc), vehicle: saline, evaluated on day 21) and 142 % of control in test [2] (T/C endpoint: median survival time, dose: 16.0 mg/kg/injection, schedule: Q01DX009 (sc), vehicle: saline, evaluated on day 30).
